Experimental data as given in article PMC5821868.
These are yes or no findings as the source states them, for the method shown. Some results given as binding are weak or reduced against the parent protein; the word gives no strength. Where a sequence is shown, tags or fusion partners need not be part of it.

Sequences of proteins named here, by UniProt entry; tags and fusion partners are left off. Residues count along the entry.
UniProt Q8N423, residues 22-597: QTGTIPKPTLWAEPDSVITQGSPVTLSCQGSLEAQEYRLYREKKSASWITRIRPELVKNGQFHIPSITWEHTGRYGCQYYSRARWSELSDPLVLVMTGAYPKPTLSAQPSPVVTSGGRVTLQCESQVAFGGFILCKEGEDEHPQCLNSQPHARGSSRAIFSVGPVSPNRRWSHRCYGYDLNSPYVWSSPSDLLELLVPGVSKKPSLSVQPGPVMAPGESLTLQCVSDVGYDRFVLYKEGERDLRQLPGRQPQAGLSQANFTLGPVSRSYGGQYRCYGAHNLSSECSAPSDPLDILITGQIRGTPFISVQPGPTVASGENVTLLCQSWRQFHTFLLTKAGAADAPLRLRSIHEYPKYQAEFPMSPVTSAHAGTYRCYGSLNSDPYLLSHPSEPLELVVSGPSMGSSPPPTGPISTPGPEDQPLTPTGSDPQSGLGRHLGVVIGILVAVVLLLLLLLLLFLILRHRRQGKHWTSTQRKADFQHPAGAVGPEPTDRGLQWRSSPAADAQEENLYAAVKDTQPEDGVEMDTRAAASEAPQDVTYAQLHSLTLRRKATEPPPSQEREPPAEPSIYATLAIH

Tests used:
[1] = molecular target: ILT-4 expressed on transfected 293T cells (human) (UniProt Q8N423); experiment: flow cytometry on cells; ILT-4-transfected 293T cells stained with SEMA4A-Fc, with or without an excess of ILT-4-Fc or mIgG; hIgG as control; only the binder purified
[2] = molecular target: ILT-4 expressed on H9 cells from the retroviral cDNA library of activated CD4+ T cells (human) (UniProt Q8N423); experiment: flow cytometry on cells; expression cloning: H9 cells infected with a retroviral cDNA library of activated CD4+ T cells, stained with APC-conjugated SEMA4A-Fc; six rounds of sorting; insert cloned by PCR and sequenced; only the binder purified
[3] = molecular target: ILT-4 on activated human CD4+ T cells (human (endogenous in activated CD4+ T cells)) (UniProt Q8N423); experiment: flow cytometry on cells; purified naive human CD4+ T cells activated with immobilized anti-CD3 and anti-CD28 for 1 day, stained with SEMA4A-Fc with or without an excess of ILT-4-Fc, or with anti-ILT-4 mAb with or without an excess of SEMA4A-Fc; only the binder purified
[4] = molecular target: ILT-4 expressed on transfected 293T cells (human) (UniProt Q8N423); experiment: receptor array on transfected cells (Applied Biosystems 8200 cellular detection system); 293T cells transfected with plasmids of human transmembrane genes in 384-well plates; 50 ng SEMA4A-Fc and 50 ng anti-human Ig FMAT blue secondary antibody per well; read 24 h after transfection; only the binder purified

Measured: binding

B1: recombinant human SEMA4A-Fc fusion protein (R&D Systems) (Fc fusion, UniProt Q9H3S1 33-683)
chain: GGGQGPMPRVRYYAGDERRALSFFHQKGLQDFDTLLLSGDGNTLYVGAREAILALDIQDPGVPRLKNMIPWPASDRKKSECAFKKKSNETQCFNFIRVLVSYNVTHLYTCGTFAFSPACTFIELQDSYLLPISEDKVMEGKGQSPFDPAHKHTAVLVDGMLYSGTMNNFLGSEPILMRTLGSQPVLKTDNFLRWLHHDASFVAAIPSTQVVYFFFEETASEFDFFERLHTSRVARVCKNDVGGEKLLQKKWTTFLKAQLLCTQPGQLPFNVIRHAVLLPADSPTAPHIYAVFTSQWQVGGTRSSAVCAFSLLDIERVFKGKYKELNKETSRWTTYRGPETNPRPGSCSVGPSSDKALTFMKDHFLMDEQVVGTPLLVKSGVEYTRLAVETAQGLDGHSHLVMYLGTTTGSLHKAVVSGDSSAHLVEEIQLFPDPEPVRNLQLAPTQGAVFVGFSGGVWRVPRANCSVYESCVDCVLARDPHCAWDPESRTCCLLSAPNLNSWKQDMERGNPEWACASGPMSRSLRPQSRPQIIKEVLAVPNSILELPCPHLSALASYYWSHGPAAVPEASSTVYNGSLLLIVQDGVGGLYQCWATENGFSYPVISYWVDSQDQTLALDPELAGIPREHVKVPLTRVSGGAALAAQQSYWPH
binds: [1] | [2] | [3] | [4]
